These are yes or no findings as the source states them, for the method shown. Some entries that bind do so weakly or less than the wild type.
Legend:
[1] = molecular target: recombinant mouse domain 1-3His6 of CI-M6PR (mouse) (UniProt Q07113); assay: ELISA on coated mDom1-3His6
[2] = molecular target: recombinant human domain 1-3His6 of the cation-independent mannose-6-phosphate receptor (human) (UniProt P11717); assay: ELISA: coated human CI-M6PR Domain 1-3His6, serially diluted VHH, anti-VHH-HRP, TMB, Abs 450 nm
[3] = molecular target: recombinant human domain 1-3His6 of the cation-independent mannose-6-phosphate receptor (human) (UniProt P11717); assay: ELISA: coated human CI-M6PR Domain 1-3His6, serially diluted VHH, anti-VHH-HRP, TMB, Abs 450 nm (replicate of FIG. 4A) [upper graph]
[4] = molecular target: recombinant human domain 1-3His6 of the cation-independent mannose-6-phosphate receptor (human) (UniProt P11717); assay: ELISA on coated hDom1-3His6
E148R = molecular target: T1, E148R; assay: ELISA on coated antigen (100 ng; labelled E148R on the sheet, E148F in the text), anti-VHH-HRP, A450
T1 construct: also called human CI-M6PR Dom1-3His6 E148F
T1 chain: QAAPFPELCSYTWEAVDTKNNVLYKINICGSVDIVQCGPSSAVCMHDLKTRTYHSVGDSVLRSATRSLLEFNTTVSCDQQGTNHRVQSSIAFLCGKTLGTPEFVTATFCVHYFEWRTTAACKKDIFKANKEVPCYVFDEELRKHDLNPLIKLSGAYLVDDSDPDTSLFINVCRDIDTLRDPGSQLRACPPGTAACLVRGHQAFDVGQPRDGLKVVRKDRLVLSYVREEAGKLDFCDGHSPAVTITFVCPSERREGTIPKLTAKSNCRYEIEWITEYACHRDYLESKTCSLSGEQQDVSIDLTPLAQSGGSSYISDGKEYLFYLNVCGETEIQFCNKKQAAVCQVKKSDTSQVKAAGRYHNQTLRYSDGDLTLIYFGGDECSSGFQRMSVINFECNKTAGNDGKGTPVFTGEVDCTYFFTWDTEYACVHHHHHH
Method: To determine the effect of site-directed mutations, an ELISA was performed. To this end, 100 ng of each successfully purified mutant was coated per well on Nunc Maxisorp plates in 50 mM MES, 150 mM NaCl, pH 6.5 buffer overnight at 4° C. […] Coating-only controls were included for background correction. […] Reactions were stopped after five minutes using a 2N H₂SO₄ solution and plates were read at 450 nm, with a 655 nm background correction. Data were analyzed using the GraphPad Prism 9 software.

The chains behind the UniProt entries cited, without tags or fusion partners. Where a name states a change or a piece, a line headed by the entry shows the natural chain unless it says otherwise.
UniProt Q07113: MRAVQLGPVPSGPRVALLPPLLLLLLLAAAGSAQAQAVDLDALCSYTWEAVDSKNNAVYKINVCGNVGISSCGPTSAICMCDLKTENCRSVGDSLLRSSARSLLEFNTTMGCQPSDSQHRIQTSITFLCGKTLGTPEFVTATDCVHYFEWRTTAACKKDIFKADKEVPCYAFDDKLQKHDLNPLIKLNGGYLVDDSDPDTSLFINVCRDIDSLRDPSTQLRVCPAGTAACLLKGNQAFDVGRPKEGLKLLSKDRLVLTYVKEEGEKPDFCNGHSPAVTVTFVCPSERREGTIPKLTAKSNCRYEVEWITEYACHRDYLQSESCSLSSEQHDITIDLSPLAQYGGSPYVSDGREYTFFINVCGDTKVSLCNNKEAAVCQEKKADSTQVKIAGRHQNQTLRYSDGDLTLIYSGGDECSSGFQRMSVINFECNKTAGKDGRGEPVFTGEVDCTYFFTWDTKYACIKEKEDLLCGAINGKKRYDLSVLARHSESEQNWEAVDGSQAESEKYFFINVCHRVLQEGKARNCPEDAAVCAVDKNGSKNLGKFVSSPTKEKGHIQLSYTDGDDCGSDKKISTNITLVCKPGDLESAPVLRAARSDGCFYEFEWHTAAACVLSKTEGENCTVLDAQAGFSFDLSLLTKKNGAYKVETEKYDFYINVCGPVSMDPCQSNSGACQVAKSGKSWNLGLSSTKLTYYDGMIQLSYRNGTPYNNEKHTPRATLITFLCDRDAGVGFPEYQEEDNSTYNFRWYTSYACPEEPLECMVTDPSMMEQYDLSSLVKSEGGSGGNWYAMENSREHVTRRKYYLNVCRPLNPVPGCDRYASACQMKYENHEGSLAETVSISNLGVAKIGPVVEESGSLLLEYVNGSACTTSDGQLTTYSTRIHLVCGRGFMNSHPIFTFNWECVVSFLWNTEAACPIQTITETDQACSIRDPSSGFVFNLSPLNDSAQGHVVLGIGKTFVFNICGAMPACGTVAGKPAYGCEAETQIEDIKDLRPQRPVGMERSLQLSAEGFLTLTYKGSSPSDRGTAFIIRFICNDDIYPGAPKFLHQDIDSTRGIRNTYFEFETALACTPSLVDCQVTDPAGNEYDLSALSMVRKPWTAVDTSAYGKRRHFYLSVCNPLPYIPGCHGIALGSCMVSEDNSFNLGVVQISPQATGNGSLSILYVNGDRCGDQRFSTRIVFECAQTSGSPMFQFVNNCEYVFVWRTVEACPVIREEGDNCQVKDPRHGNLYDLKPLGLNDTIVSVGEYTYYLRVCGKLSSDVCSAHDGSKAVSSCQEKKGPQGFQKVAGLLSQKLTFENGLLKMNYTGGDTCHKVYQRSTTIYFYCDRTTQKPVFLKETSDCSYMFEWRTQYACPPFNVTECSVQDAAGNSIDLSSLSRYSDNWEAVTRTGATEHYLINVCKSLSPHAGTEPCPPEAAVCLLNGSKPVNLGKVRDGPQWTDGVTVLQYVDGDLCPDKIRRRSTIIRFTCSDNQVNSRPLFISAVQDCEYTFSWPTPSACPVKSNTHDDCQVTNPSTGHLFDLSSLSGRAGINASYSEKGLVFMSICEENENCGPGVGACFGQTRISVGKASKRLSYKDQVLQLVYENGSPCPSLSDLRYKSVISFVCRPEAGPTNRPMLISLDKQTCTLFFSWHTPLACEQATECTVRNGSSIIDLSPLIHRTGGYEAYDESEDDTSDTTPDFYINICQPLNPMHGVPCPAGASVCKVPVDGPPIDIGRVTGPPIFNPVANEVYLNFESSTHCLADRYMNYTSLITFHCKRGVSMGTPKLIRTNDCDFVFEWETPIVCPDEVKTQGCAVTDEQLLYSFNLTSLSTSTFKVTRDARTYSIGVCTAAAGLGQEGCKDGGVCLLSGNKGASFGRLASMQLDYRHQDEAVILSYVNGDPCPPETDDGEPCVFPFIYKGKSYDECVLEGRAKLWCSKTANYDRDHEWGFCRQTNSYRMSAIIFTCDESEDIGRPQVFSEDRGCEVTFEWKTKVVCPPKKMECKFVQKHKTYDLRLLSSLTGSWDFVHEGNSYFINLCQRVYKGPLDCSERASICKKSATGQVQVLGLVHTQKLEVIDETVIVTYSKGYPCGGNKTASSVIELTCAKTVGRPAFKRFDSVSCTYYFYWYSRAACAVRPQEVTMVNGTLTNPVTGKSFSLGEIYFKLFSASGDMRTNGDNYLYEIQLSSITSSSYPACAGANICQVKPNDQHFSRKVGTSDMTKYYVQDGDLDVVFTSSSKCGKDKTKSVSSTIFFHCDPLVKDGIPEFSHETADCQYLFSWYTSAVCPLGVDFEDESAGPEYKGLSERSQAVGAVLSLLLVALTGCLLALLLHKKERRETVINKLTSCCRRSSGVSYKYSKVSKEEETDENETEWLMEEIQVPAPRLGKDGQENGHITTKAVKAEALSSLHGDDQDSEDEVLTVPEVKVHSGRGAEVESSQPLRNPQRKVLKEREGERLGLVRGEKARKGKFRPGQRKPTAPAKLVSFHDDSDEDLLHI

[5] = molecular target: recombinant mouse domain 1-3His6 of CI-M6PR (mouse) (UniProt Q07113); assay: ELISA: coated mouse CI-M6PR Domain 1-3His6, further purified antigen (FIGS. 2C-D), serially diluted VHH, Abs 450 nm; concentration axis has no printed unit

B1: anti-CI-M6PR VHH2 (VHH)
VHH: QVQLQESGGGLVQPGGSLRLSCVFSGRTFMSYDVGWFRQAPGKERELLSSITSSSSSPYYAESVKGRFAVSRDGAKKTVYLRMNSLEPEDTAVYYCAARENWRNDWQYWGQTQVTVSS
notes: His6-tagged; made in Pichia pastoris
Q: Which results are given for B1?
A: binding [1]: binds; binding [2]: binds; binding [3]: binds; binding [4]: binds

B2: anti-CI-M6PR VHH8 (VHH)
VHH: QVQLQESGGGLVQAGGSLRLSCEASGRTFNTYNWGWFRQAPGKEREFVAAIRWSSSKTSYADSVKGRFTISRDNAKNTIYLQMNSLKPEDTAVYYCAASIVDFTTNPSHFGSWGQGTQVTVSS
notes: His6-tagged (Pichia pastoris)
Q: How did the binding [1] turn out when B2 was run?
A: binds

Q: What about the binding (E148R) of the same binder?
A: binds

Q: What about the binding [5] of the same binder?
A: binds

B3: anti-CI-M6PR VHH5 (VHH)
VHH: QVQLQESGGGLVQAGGSLKLSCAAAGRTFSRLAMGWFRQAPGKEREFVAAISENGDSIHYSDSVKGRFAVSRDNAKNTVYLQMNSLKPEDTAIYYCAADRAAYYCSGSGCYPSRAPAAASYDYWGQGTQVTVSS
notes: His6-tagged; made in Pichia pastoris, later also in E. coli WK6
Q: For B3, which binding [1] is on record?
A: binds

Q: What about the binding (E148R) of the same binder?
A: binds

Q: What about the binding [5] of the same binder?
A: binds

B4: anti-CI-M6PR VHH1 (VHH)
VHH: QVQLQESGGGLVQPGGSLRLSCVASGFTFDRYWMNWLRQIPGKEIEWVSTINTGGTGTYYDDSVKGRFSISRDDAKNTLYLTMNSLKTEDTAVYYCARGATYYRGNSAIRGQGTQVTVSS
notes: as for B3
Q: What does the source list for B4?
A: binding [1]: binds; binding [5]: binds

B5: anti-CI-M6PR VHH7 (VHH)
VHH: QVQLQESGGGLVQPGGSLRLSCAASGIIFSDNRMDWYRQAPGKQREWVATLASYGWKTYADSVKGRFTISRDNTKNTVYLRMNSLKPEDTAVYYCKASSPVLNDIWGQGTQVTVSS
notes: His6-tagged (Pichia pastoris)
Q: For B5, which binding [5] is on record?
A: binds

B6: anti-CI-M6PR VHH3 (VHH)
VHH: QVQLQESGGGLVQPGGSLRLSCAAFGLNFKNFDMIWFRQAPGEERDIVAAISSSSSTIWYEDSVKGRFTISRDNAKNTVYLQMNSLKPEDTAVYYCAAALTSWRRPDYWGQGTQVTVSS
notes: as for B1
Q: With B6 as the binder, how does the binding [1] read?
A: binds

B7: anti-CI-M6PR VHH4 (VHH)
VHH: QVQLQESGGGLVQAGGSLRLSCAASGRTFSNYVMGWFRQAPGKEREFVGSISQGGKMTYYPDSVKGRFTISRDNAKNTMYLQMDGLKPEDTAVYYCAVSRGYPMVRVSEVDYWGQGTQVTVSS
notes: as for B1
Q: For B7, which binding [1] is on record?
A: binds

B8: anti-CI-M6PR VHH11 (VHH)
VHH: QVQLQESGGGLVQAGDSLKLSCTASGPTFSEITGGWFRQVPGKEREFVASISSTGITTYYTDSVKGRFTVSRDNAKNTMYLQMNSLKPEDTGVYYCAARSTSRSIAITVGYDYWGQGTQVTVSS
notes: as for B1
Q: B8 was tested. Which binding [1] did it give?
A: binds
